Experimental data: PubChem BioAssay AID504793 (Drosophila RNAi Screening Center, 2011)

Screen: 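Genes required for cells to halt at G2/M after double-strand DNA breaks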 (primary screen)
Cells: Drosophila S2R+ cells
Knock-down reagent: long dsRNA against Drosophila genes, about 0.25 µg dsRNA per well
Time to read-out: 4 days of dsRNA, then 4 hours of drug before read-out
Treatment: doxorubicin 0.5 µM for 4 hours to cause double-strand breaks, in cells also given a low, harmless dose of dsRNA against nbs to sensitise the assay
Detection: 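Per-well count of mitotic cells stained for phospho-histone H3 after doxorubicin exposure, used as mitotic index; counts are raw and not normalised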
Direction: mitotic cells: higher = more cells in mitosis, weaker G2 arrest
Call rule: 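Genes are called active only when high mitotic counts were reproduced with independent dsRNAs and mitosis was checked for delay without damage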
Meaning of the calls: active = confirmed in follow-up tests; inactive = not confirmed
In all, the deposit lists about 23,000 reagents; this is an unselected part of those that have a named target and a result. Of all reagents, 62 (0.27%) got an active call. 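Calls come from follow-up tests whose scores are not deposited, so confirmed genes may have low counts here; counts are not normalised per plate.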 Raw values are not corrected between plates. A plus sign joins genes that one reagent is predicted to hit.

gene knocked down | DRSC id | mitotic cells, replicate 1 | mitotic cells, replicate 2 | Outcome
RacGAP84C (GeneID 117503) | DRSC12630 | 4 | – | inactive
clt (GeneID 117300) | DRSC04621 | 5 | – | inactive
CG2217 + CG42740 | DRSC14141 | 5 | – | inactive
CG15170 (GeneID 35160) | DRSC02471 | 5 | – | inactive
CSN8 (GeneID 49077) | DRSC02257 | 12 | – | inactive
fz (GeneID 45307) | DRSC11348 | 1 | – | inactive
fz (GeneID 45307) | DRSC39155 | 6 | – | inactive
udd (GeneID 35781) | DRSC06720 | 6 | – | inactive
gny (GeneID 34409) | DRSC02810 | 4 | – | inactive
Claspin (GeneID 326205) | DRSC08308 | 16 | – | inactive
Gem4b + Gem4c | DRSC17294 | 9 | – | inactive
mr (GeneID 45906) | DRSC04332 | 13 | – | inactive
mr (GeneID 45906) | DRSC22856 | 20 | – | inactive
mr (GeneID 45906) | DRSC29384 | 56 | – | inactive
Faa (GeneID 45577) | DRSC08451 | 5 | – | inactive
ais (GeneID 39979) | DRSC10523 | 8 | – | inactive
ais (GeneID 39979) | DRSC25460 | 1 | – | inactive
MagR (GeneID 32513) | DRSC20092 | 11 | – | inactive
cu (GeneID 41339) | DRSC15643 | 4 | – | inactive
cu (GeneID 41339) | DRSC15648 | 5 | – | inactive
CG32625 (GeneID 318128) | DRSC18994 | 6 | – | inactive
CG32625 (GeneID 318128) | DRSC28080 | 10 | – | inactive
brv3 (GeneID 31246) | DRSC18657 | 14 | – | inactive
brv3 (GeneID 31246) | DRSC25544 | 8 | – | inactive
Dbct (GeneID 32441) | DRSC19951 | 6 | – | inactive
Dbct (GeneID 32441) | DRSC25764 | 5 | – | inactive
h-cup (GeneID 41879) | DRSC15973 | 9 | – | inactive
h-cup (GeneID 41879) | DRSC24713 | 8 | – | inactive
mesh (GeneID 43688) | DRSC14472 | 10 | 8 | inactive
mesh (GeneID 43688) | DRSC15098 | 10 | – | inactive
mesh (GeneID 43688) | DRSC15099 | 18 | – | inactive
CG12268 (GeneID 42833) | DRSC14491 | 9 | – | inactive
CG12268 (GeneID 42833) | DRSC28755 | 9 | – | inactive
Rpn12R (GeneID 2768973) | DRSC09842 | 9 | – | inactive
knrl (GeneID 40285) | DRSC23245 | 8 | – | inactive
knrl (GeneID 40285) | DRSC28310 | 3 | – | inactive
CG4752 (GeneID 37569) | DRSC04486 | 3 | – | inactive
CG4752 (GeneID 37569) | DRSC27141 | 7 | – | inactive
CG32147 (GeneID 251690) | DRSC09346 | 7 | – | inactive
CG32147 (GeneID 251690) | DRSC24225 | 4 | – | inactive
nsl1 (GeneID 41911) | DRSC15625 | 28 | – | active
RpL35A (GeneID 40654) | DRSC12302 | 4 | – | inactive
dimm (GeneID 35404) | DRSC03100 | 7 | – | inactive
Atf6 (GeneID 35480) | DRSC04743 | 10 | – | inactive
Atf6 (GeneID 35480) | DRSC04889 | 6 | – | inactive
Atf6 (GeneID 35480) | DRSC28936 | 6 | – | inactive
brat (GeneID 35197) | DRSC03497 | 5 | – | inactive
brat (GeneID 35197) | DRSC37393 | 10 | – | inactive
CG17944 (GeneID 40885) | DRSC12572 | 1 | – | inactive
Atg17 (GeneID 40700) | DRSC12221 | 4 | – | inactive
Ugt37A1 (GeneID 35307) | DRSC02114 | 3 | – | inactive
zda (GeneID 37144) | DRSC06936 | 9 | – | inactive
zda (GeneID 37144) | DRSC25289 | 15 | – | inactive
CG9555 (GeneID 34223) | DRSC03264 | 5 | – | inactive
CG9555 (GeneID 34223) | DRSC25330 | 2 | – | inactive
CAH16 (GeneID 50101) | DRSC15371 | 5 | – | inactive
CAH16 (GeneID 50101) | DRSC27986 | 3 | – | inactive
emp (GeneID 37999) | DRSC04019 | 6 | – | inactive
emp (GeneID 37999) | DRSC04683 | 1 | – | inactive
CG8547 (GeneID 36586) | DRSC07211 | 6 | – | inactive
CG8547 (GeneID 36586) | DRSC28818 | 6 | – | inactive
Jon65Aiv (GeneID 38682) | DRSC10644 | 10 | – | inactive
Jon65Aiv (GeneID 38682) | DRSC25179 | 14 | – | inactive
Arglu1 (GeneID 34320) | DRSC02909 | 13 | – | inactive
Arglu1 (GeneID 34320) | DRSC28836 | 2 | – | inactive
Gk1 (GeneID 43913) | DRSC08533 | 2 | – | inactive
Gk1 (GeneID 43913) | DRSC08534 | 5 | – | inactive
SPARC (GeneID 43230) | DRSC14123 | 11 | – | inactive
SPARC (GeneID 43230) | DRSC26381 | 4 | – | inactive
VhaAC39-2 (GeneID 42739) | DRSC15609 | 14 | – | inactive
Mctp (GeneID 37165) | DRSC06510 | 6 | – | inactive
Mctp (GeneID 37165) | DRSC22896 | 10 | – | inactive
Mctp (GeneID 37165) | DRSC25505 | 6 | – | inactive
Mctp (GeneID 37165) | DRSC28921 | 7 | – | inactive
CG1638 (GeneID 43721) | DRSC15132 | 6 | – | inactive
CG1638 (GeneID 43721) | DRSC29986 | 7 | – | inactive
CG4607 (GeneID 31653) | DRSC18375 | 4 | – | inactive
Als2 (GeneID 40410) | DRSC11806 | 5 | – | inactive
Ugt304A1 (GeneID 53501) | DRSC15127 | 3 | – | inactive
Ugt304A1 (GeneID 53501) | DRSC26693 | 8 | – | inactive
TbCMF46 (GeneID 34318) | DRSC02221 | 10 | – | inactive
CG15721 (GeneID 32247) | DRSC19688 | 12 | – | inactive
CG33453 (GeneID 2768851) | DRSC05782 | 8 | – | inactive
CG2694 (GeneID 31260) | DRSC18470 | 6 | – | inactive

Records above whose gene name starts with E or e (2):
gene knocked down | DRSC id | mitotic cells, replicate 1 | mitotic cells, replicate 2 | Outcome
emp (GeneID 37999) | DRSC04019 | 6 | – | inactive
emp (GeneID 37999) | DRSC04683 | 1 | – | inactive

Next records:
gene knocked down | DRSC id | mitotic cells, replicate 1 | mitotic cells, replicate 2 | Outcome
Bka (GeneID 46032) | DRSC02757 | 9 | – | inactive
Snmp2 (GeneID 38868) | DRSC10228 | 5 | – | inactive
Snmp2 (GeneID 38868) | DRSC10843 | 6 | – | inactive
CG10222 (GeneID 39504) | DRSC09714 | 10 | – | inactive
CG10222 (GeneID 39504) | DRSC28067 | 4 | – | inactive
krz (GeneID 53554) | DRSC16979 | 9 | – | inactive
Gr59a (GeneID 117485) | DRSC21550 | 13 | – | inactive
fsd (GeneID 36463) | DRSC06166 | 2 | – | inactive
Crys (GeneID 34604) | DRSC03294 | 8 | – | inactive
Crys (GeneID 34604) | DRSC24638 | 5 | – | inactive
CG7131 (GeneID 42197) | DRSC16203 | 4 | – | inactive
CG7131 (GeneID 42197) | DRSC29880 | 8 | – | inactive
O-fut1 (GeneID 36564) | DRSC06138 | 3 | – | inactive
O-fut1 (GeneID 36564) | DRSC26476 | 7 | – | inactive
CG42323 (GeneID 32825) | DRSC19629 | 12 | – | inactive
CG42323 (GeneID 32825) | DRSC21397 | 5 | – | inactive
BomBc3 (GeneID 50055) | DRSC15873 | 8 | – | inactive
BomBc3 (GeneID 50055) | DRSC29503 | 5 | – | inactive
axed (GeneID 38741) | DRSC08833 | 10 | – | inactive
axed (GeneID 38741) | DRSC10982 | 3 | – | inactive
jp (GeneID 34274) | DRSC02213 | 4 | – | inactive
CG1307 (GeneID 40814) | DRSC12492 | 4 | – | inactive
sgg (GeneID 31248) | DRSC17228 | 5 | – | inactive
sgg (GeneID 31248) | DRSC17722 | 9 | – | inactive
sgg (GeneID 31248) | DRSC18832 | 10 | – | inactive
sgg (GeneID 31248) | DRSC23946 | 22 | – | inactive
CG7406 (GeneID 32892) | DRSC20042 | 5 | – | inactive
CG7406 (GeneID 32892) | DRSC28709 | – | – | inactive
CR40450 + CG32767 | DRSC18387 | 8 | – | inactive
ArgRS (GeneID 32539) | DRSC20138 | 11 | – | inactive
Spn42Dd (GeneID 49808) | DRSC05024 | 8 | – | inactive
Spn42Dd (GeneID 49808) | DRSC22060 | – | – | inactive
CG6927 (GeneID 31419) | DRSC18407 | 6 | – | inactive
Osi15 (GeneID 40771) | DRSC12178 | 7 | – | inactive
LysD + LysB + LysC (retired record) | DRSC21249 | 10 | – | inactive
CG5070 (GeneID 32705) | DRSC19932 | 5 | – | inactive
CG5070 (GeneID 32705) | DRSC28082 | 6 | – | inactive
CG15406 (GeneID 33542) | DRSC00420 | 3 | – | inactive
CG15406 (GeneID 33542) | DRSC28108 | 7 | – | inactive
CG13101 (GeneID 34221) | DRSC02201 | 6 | – | inactive
CG12436 (retired record) + CG42514 | DRSC26599 | 9 | – | inactive
Galk (GeneID 39031) | DRSC10500 | 5 | – | inactive
Galk (GeneID 39031) | DRSC26987 | 5 | – | inactive
CG33463 (GeneID 2768844) | DRSC22915 | 12 | – | inactive
CG33463 (GeneID 2768844) | DRSC29923 | 12 | – | inactive
Ir94c (GeneID 318727) | DRSC13539 | 8 | – | inactive
CG5504 (GeneID 48844) | DRSC04701 | 6 | – | inactive
dachs (GeneID 34179) | DRSC02072 | 5 | – | inactive
dachs (GeneID 34179) | DRSC02191 | 1 | – | inactive
dachs (GeneID 34179) | DRSC26121 | 3 | – | inactive
dachs (GeneID 34179) | DRSC28403 | 4 | – | inactive
Sps2 (GeneID 34397) | DRSC03441 | 3 | – | inactive
htk (GeneID 32877) | DRSC20029 | 4 | – | inactive
htk (GeneID 32877) | DRSC20031 | 7 | – | inactive
htk (GeneID 32877) | DRSC27508 | 13 | – | inactive
CG11617 (GeneID 33183) | DRSC00321 | 5 | – | inactive
CG11617 (GeneID 33183) | DRSC21786 | 8 | – | inactive
CG11617 (GeneID 33183) | DRSC28154 | 8 | – | inactive
